Laboratory results taken from patent US20100216661A1, “Diagnostic Assay” (priority 2007, published 2010).
Some entries share one result that the patent states for a list of compounds.

Each substance was assayed on anti-Fy^b monoclonal antibody (LM447) (assay: Phage ELISA (capture ELISA) of phage-peptides on coated anti-Fy^b antibody). Settings: FIG. 1; LM447 coated from 10 μg/ml stock; phage culture supernatant; OD450 greater than 0.1 considered positive; 20 phage assayed.
Type: binding, Murine
Protocol: The ability of the recovered phage-peptides to react with the antibodies used in their selection was confirmed by capture ELISA. A 10 μg/ml stock of appropriate monoclonal antibody was prepared in ELISA coating buffer and 150 μl aliquots were added to wells of an Immulon 4 ELISA plate, and then incubated overnight at 4° C. Unbound antibody was discarded and the wells were blocked with 350 μl of blocking buffer (0.1M NaHCO3/3% skimmed milk powder) for 1 hour at 4° C. The wells were washed three times with 300 μl TBS/0.5% Tween 20 and 100 μl of selected phage culture supernatants were added to appropriate wells for 1 hour at room temperature. Unbound phage were removed and the wells washed six times with 300 μl TBS/0.5% Tween 20. A 1:5000 dilution of horseradish peroxidase (HRP) conjugated anti-M13, secondary antibody was prepared in blocking buffer and 100 μl aliquots added to each well. Following incubation for 1 hour at room temperature the wells were washed six times with 300 μl TBS/0.5% Tween 20. To develop the reactions, a 200 μl aliquot of o-phenylenediamine dihydrochloride (OPD) substrate (Sigma) was added to each well. The absorbance at 450 nm was measured, following incubation at room temperature for 1 hour, by a microplate ELISA reader. An OD450 signal greater than 0.1 was considered positive.
The phage ELISA results confirmed the binding of the anti-Fy^b monoclonal, LM447. A 10 μg/ml stock of this monoclonal antibody was prepared in ELISA coating buffer and 150 μl aliquots were added to wells of an Immulon 4 ELISA plate, and then incubated overnight at 4° C. Unbound antibody was discarded and the wells were blocked with 350 μl of blocking buffer for 1 hour at 4° C. The wells were washed three times with 300 μl TBS/0.5% Tween 20 and 100 μl of selected phage culture supernatants were added to appropriate wells for 1 hour at room temperature. Unbound phage were removed and the wells washed six times with 300 μl TBS/0.5% Tween 20. A 1:5000 dilution of horseradish peroxidase (HRP) conjugated anti-M13, secondary antibody was prepared in blocking buffer and 100 μl aliquots added to each well. Following incubation for 1 hour at room temperature the wells were washed six times with 300 μl TBS/0.5% Tween 20. To develop the reactions, 200 μl aliquots of o-phenylenediamine dihydrochloride (OPD) substrate (Sigma) was added to each well. The absorbance at 450 nm was measured following incubation at room temperature for 1 hour. The absorbance values at 450 nm, confirmed the binding of 14 (Peptides Fyb1, Fyb2, Fyb4-5, Fyb7-13, Fyb25, 27 & 28) of the 20 phage assayed (see FIG. 1).

Phage ELISA binding of phage-peptide to anti-Fy^b antibody LM447 (absorbance at 450 nm), binding:
MVQELPFVLRSK [Fyb11]
MYQPLAL [Fyb27]
MYQPGPQGLPQS [Fyb2]
MYQDTPPPRKNV [Fyb1]
TFQYLDPPPFTP [Fyb13]
MFQPDFL [Fyb28]
MFQEHTPAFGGL [Fyb7]
TFQPRSWPNIDL [Fyb12]
MYQDAGPTEWSY [Fyb4]
MFQEPLPPFKAS [Fyb8]
MQQPAGWKYLGQ [Fyb10]
MWQPAPPSVRGA [Fyb5]
MWQPSTF [Fyb25]
MFQPTHWGTRLS [Fyb9]
